From PubChem BioAssay AID493014 (National Center for Advancing Translational Sciences (NCATS), 2011)
The list shows a part of the results. These are further read-outs of the screen, such as a control signal, another cell line or another target. No call is given for them. Most of these compounds were active or inconclusive in the main read-out, so they are no random draw. Potencies come from curve fits of mixed quality, noted in brackets.

Assay: qHTS Assay to Find Inhibitors of Chronic Active B-Cell Receptor Signaling
Details: ABC-DLBCL IkBa-CBG/CBR reporter, luminescence ratio (green luciferase fused to IkBa over red control in TMD8 lymphoma cells), 4 h
In short: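 Compounds up to 46 uM were incubated four hours with TMD8 cells whose green CBG68 luciferase is fused to IkappaBalpha; red CBR luminescence normalised the signal, and concentration-effect curves were fitted to fusion, red and ratio data.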

[1] = measured here: CBR red luminescence, cell number
[2] = measured here: IkBa-CBG green luminescence

| Compound | AC50 [1] | AC50 [2] |
| --- | --- | --- |
| CCOc1ccc(-n2cc(-c3ccccc3)c3c(NCCc4ccccc4)ncnc32)cc1 | 12.6 µM [rising, partial curve] |  |
| COc1ccc(C(=O)O)cc1S(=O)(=O)Nc1ccccc1Cc1ccccc1 | 5.62 µM [rising, full curve] |  |
| C=CCn1c(SCC(=O)Nc2ccc(-c3nc4ccc(C)cc4s3)cc2)nnc1-c1ccccc1 | 5.17 µM [rising, partial curve] |  |
| O=C(CCc1ccccc1)Nc1ccc(Cl)cn1 | 8.91 µM [falling, partial curve] | 35.5 µM [falling, single point] |
| CC(=O)c1ccc(NC(=S)Nc2cccc3cnccc23)cc1 | 15.8 µM [falling, single point] |  |
| COc1cccc(NC2=C(Cl)C(=O)OC2OC(=O)c2ccco2)c1 (stereo not given) | 3.55 µM [falling, partial curve] |  |
| CCCOCc1ccc(O)c2ncccc12 | 0.282 µM [rising, full curve, poor fit] | 2.24 µM [falling, full curve, poor fit] |
| COc1ccc(NC(=S)N(Cc2cccnc2)Cc2ccco2)cc1 | 35.5 µM [rising, single point] |  |
| CCCn1c(SCC(=O)c2ccc3c(c2)OCCO3)n[nH]c1=O | 10 µM [falling, partial curve, poor fit] |  |
| CCN(CC)S(=O)(=O)c1cccc(C(=O)Nc2cccc(C)c2)c1 | 20.6 µM [falling, single point] |  |
| CN1C(=O)CSc2ccc(NC(=O)NCCC3=CCCCC3)cc21 | 0.92 µM [rising, full curve, poor fit] |  |
| COc1cc(CN2CCCCC2C(=O)Nc2ccc(Oc3ccccc3)nc2)ccc1O (stereo not given) | 6.31 µM [rising, full curve] |  |
| CNC(=O)CC1C(=O)N(C)C(=S)N1NC(=O)c1ccccc1 (stereo not given) | 0.1 µM [falling, full curve, poor fit] |  |
| CCCCc1ccc(Nc2ncccc2C#N)cc1 | 6.31 µM [rising, partial curve, poor fit] |  |
| O=C(CSc1nc2ccccc2nc1N1CCCCC1)Nc1ccc(F)cc1 | 3.55 µM [falling, full curve] |  |
| O=C(CSc1nc2nc3c(cc2c(=O)n1-c1ccccc1)CCCC3)Nc1ccccc1 | 0.651 µM [rising, full curve] |  |
| CCOC(=O)CSc1nc2ccccc2c(=O)n1NC(=O)c1ccccc1 | 10 µM [falling, partial curve, poor fit] |  |
| COc1ccc(NC(=O)C2CCCC2)cc1S(=O)(=O)N1CCOCC1 | 20.6 µM [rising, single point] |  |
| Cn1nccc1C(=O)OCC(=O)Nc1nc(-c2ccccc2)cs1 | 11.2 µM [falling, partial curve] |  |
| COc1ccc([N+](=O)[O-])cc1N(CC(O)CN1C(=O)NC(C)(C)C1=O)S(=O)(=O)c1ccccc1 (stereo not given) | 8.91 µM [falling, partial curve, poor fit] |  |
| Cc1cc(C(F)(F)F)cc(NNC(=O)NC(=O)c2c(F)cccc2Cl)n1 | 3.16 µM [rising, single point] |  |

Compounds above that contain fluorine:

| Compound | AC50 [1] | AC50 [2] |
| --- | --- | --- |
| O=C(CSc1nc2ccccc2nc1N1CCCCC1)Nc1ccc(F)cc1 | 3.55 µM [falling, full curve] |  |
| Cc1cc(C(F)(F)F)cc(NNC(=O)NC(=O)c2c(F)cccc2Cl)n1 | 3.16 µM [rising, single point] |  |

Some of these compounds in order of formula weight, rising:

| Compound | AC50 [1] | AC50 [2] |
| --- | --- | --- |
| CCOC(=O)CSc1nc2ccccc2c(=O)n1NC(=O)c1ccccc1 | 10 µM [falling, partial curve, poor fit] |  |
| COc1cc(CN2CCCCC2C(=O)Nc2ccc(Oc3ccccc3)nc2)ccc1O (stereo not given) | 6.31 µM [rising, full curve] |  |
| CCOc1ccc(-n2cc(-c3ccccc3)c3c(NCCc4ccccc4)ncnc32)cc1 | 12.6 µM [rising, partial curve] |  |

(cont.)

| Compound | AC50 [1] | AC50 [2] |
| --- | --- | --- |
| Cc1cc(=O)[nH]c(N/N=C/c2c(C)nn(-c3ccccc3Cl)c2Cl)n1 | 11.2 µM [falling, partial curve, poor fit] |  |
| O=C(/C=C/c1ccco1)NC(=S)Nc1ccc(C(=O)O)cc1 | 2.51 µM [falling, full curve] |  |
| O=C(CCCC(=O)N(CC(=O)NC1CCCC1)Cc1ccccc1)Nc1ccccn1 | 14.1 µM [falling, single point] |  |
| Cc1nccn1CCCNC(=O)c1nc(Cn2cc([N+](=O)[O-])cn2)no1 | 1.41 µM [rising, full curve] |  |
| O=C(Cn1nnc(-c2ccncc2)n1)N(C1CCCCC1)C1CCCCC1 | 20.6 µM [falling, partial curve, poor fit] |  |
| CS(=O)(=O)N1CCC(C(=O)N2CCN(c3ccccc3F)CC2)CC1 | 7.08 µM [falling, single point] |  |
| CCOC(=O)C1(CCc2ccccc2)CCN(C(=O)c2occc2C)CC1 | 22.4 µM [falling, partial curve, poor fit] |  |
| Brc1cnc2nc(SC/C=C/c3ccccc3)[nH]c2c1 | 1.58 µM [rising, partial curve] |  |
| O=C(c1ccc(Cl)c(Cl)c1)N1CCN(Cc2ccc3c(c2)OCO3)CC1 | 25.1 µM [falling, single point] |  |
| CCC(=O)Nc1ccc(S(=O)(=O)Nc2ccccn2)cc1 | 0.0891 µM [falling, full curve, poor fit] |  |
| O=C(COC(=O)c1cccnc1Cl)Nc1nc(-c2ccccc2)cs1 | 0.259 µM [rising, full curve, poor fit] |  |
| Nc1nc(OCC2CCCCC2)c2[nH]cnc2n1 | 2.82 µM [rising, single point] | 12.6 µM [falling, single point] |
| COc1ccc(-c2c(C#N)c(SCC(=O)c3cc4ccccc4oc3=O)nc(C)c2C(=O)Nc2ccccc2)cc1 | 18.4 µM [falling, single point] |  |
| Cc1ccc(CN(C(=O)c2ccc(Cl)c([N+](=O)[O-])c2)C2CCS(=O)(=O)C2)o1 (stereo not given) | 1 µM [falling, full curve, poor fit] |  |
| CNC(=O)CC1C(=O)N(c2ccc(Cl)cc2)C(=S)N1NC(=O)c1cccc(F)c1 (stereo not given) | 0.112 µM [rising, full curve, poor fit] |  |
| COc1ccc(OC)c(-n2c(-c3cccc(S(=O)(=O)N(C)C)c3)n[nH]c2=S)c1 | 6.31 µM [rising, single point] |  |
| CC1=CC(C)(C)N(C(=O)CNC2CCCC2)c2cc(C)ccc21 | 35.5 µM [falling, single point] |  |
| Cc1cccc(NC(=S)NC(=O)c2oc3ccccc3c2C)n1 | 0.282 µM [rising, full curve, poor fit] |  |
| CC[C@@]12C(=O)N(c3cccc(Br)c3)C(=O)N1[C@H](c1cccc(C)c1)[C@@H]1C(=O)N(Cc3ccccc3)C(=O)[C@@H]12 | 23.1 µM [falling, partial curve] |  |
| Cc1ccc(-c2cc(C(=O)Nc3nccs3)c3ccccc3n2)c(C)c1 | 7.31 µM [falling, partial curve] |  |
| CCN(C(=O)CSc1nc(C)nc2sc3c(c12)CCC3)C1CCS(=O)(=O)C1 (stereo not given) | 5.8 µM [rising, partial curve, poor fit] |  |

| Compound | AC50 [1] | AC50 [2] |
| --- | --- | --- |
| NC(=O)CSc1ncnc2c1nnn2Cc1ccc(F)cc1 | 15.8 µM [falling, partial curve, poor fit] |  |
| O=C(NC1CCCCC1)C(c1cccs1)N(C(=O)c1ccco1)c1ccc2c(c1)OCCO2 (stereo not given) | 29.1 µM [falling, single point] |  |
| Cc1occc1C(=O)O/N=C(\N)c1ccccc1 | 10 µM [falling, partial curve] |  |
| CN(CCOc1ccccc1)C(=O)C1CCC(=O)N(CCc2ccc(Cl)cc2)C1 (stereo not given) | 12.6 µM [falling, partial curve, poor fit] |  |
| CCOc1cc(/C=N\Nc2nc(Nc3ccccc3)nc(N3CCOCC3)n2)ccc1OC(=O)c1ccco1 | 5.17 µM [falling, single point] |  |
| O=c1cc(-c2ccco2)oc2c1ccc1ccccc12 | 0.731 µM [falling, full curve, poor fit] |  |
| COc1ccc(-c2noc(CSc3ccccc3)n2)cc1OC | 0.794 µM [rising, partial curve, poor fit] |  |
| CCn1cc(C(=O)Nn2cnnc2)c(=O)c2ccc(C)nc21 | 7.08 µM [rising, partial curve] |  |
| COc1ccc(/C=C2/SC(=O)NC2=O)cc1 | 35.5 µM [falling, single point] |  |
| CC(NC(=O)COC(=O)c1ccc(N(C)C)cc1)c1ccccc1 (stereo not given) | 35.5 µM [rising, single point] |  |
| COC1=CC(=O)c2ccccc2C1=O | 18.4 µM [falling, single point] |  |
| Cc1cccc(-c2nc(CC(=O)Nc3cccc(S(=O)(=O)NC4=NCCC4)c3)cs2)c1 | 0.092 µM [rising, full curve, poor fit] |  |
| CCO[C@H]1OC(C(=O)N2CCOCC2)=C[C@@H](c2ccccc2)[C@@H]1CCCO | 0.112 µM [rising, full curve, poor fit] |  |
| O=C(COc1cccnc1[N+](=O)[O-])Nc1ccc2c(c1)OC(F)(F)O2 | 20.6 µM [rising, partial curve, poor fit] |  |
| COc1ccccc1NS(=O)(=O)c1ccc(C(=O)Nc2ncccc2O)cc1 | 6.51 µM [falling, partial curve, poor fit] |  |
| COc1cccc(CNCCc2c[nH]c3ccccc23)c1OCc1ccc(F)cc1 | 29.1 µM [falling, single point] |  |
| Cc1nn(-c2ccccc2)c2[nH]c(=O)c(CNc3ccc(N4CCOCC4)cc3)cc12 | 2.82 µM [falling, partial curve, poor fit] |  |
| O=C(COC(=O)/C=C/C(=O)N1CCN(c2ccccc2)CC1)NC(c1ccccc1)c1ccccc1 | 0.0891 µM [falling, full curve, poor fit] |  |
| Cc1ccc(S(=O)(=O)/N=c2\ccc(Cl)cn2C(F)F)cc1 | 2.82 µM [rising, partial curve, poor fit] |  |
| CCc1ccc(-c2csc(NC(=O)COC(=O)CCc3nc4ccccc4s3)n2)cc1 | 0.82 µM [rising, partial curve, poor fit] |  |
